Data: PMC10967385, “Essential role of obscurin kinase-1 in cardiomyocyte coupling via N-cadherin phosphorylation” (JCI Insight, 2024)
Results are given in words; binding and its absence hold for the method and conditions named. Binding seen in cells or lysates may run through a third protein. Some entries that bind do so weakly or less than the wild type.

Chains of the proteins cited; added tags and fusions are not shown. Lines headed by an entry give the natural chain unless they say otherwise; changes in a name come on top. A line that says so, or that is headed by a name, gives the form on record, which may keep a tag or linker. Residues count along the entry.
GST-Ncad(746-906)-WT, recombinant GST-tagged cytoplasmic domain of N-cadherin (P15116, residues 746-906): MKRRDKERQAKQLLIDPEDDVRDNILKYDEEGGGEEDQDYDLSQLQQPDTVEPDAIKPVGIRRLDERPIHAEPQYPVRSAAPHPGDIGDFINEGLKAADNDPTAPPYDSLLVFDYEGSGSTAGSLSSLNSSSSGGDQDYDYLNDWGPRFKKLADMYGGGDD
GST-Ncad(746-906)-SE, phosphomimic Ser-788-Glu GST-tagged cytoplasmic domain of N-cadherin (P15116, form named): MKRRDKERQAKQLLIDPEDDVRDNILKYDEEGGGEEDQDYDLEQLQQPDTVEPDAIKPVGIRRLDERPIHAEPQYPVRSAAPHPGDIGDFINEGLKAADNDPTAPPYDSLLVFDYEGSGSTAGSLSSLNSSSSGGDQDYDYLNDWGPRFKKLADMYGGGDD
GST-Ncad(746-906)-SA, phosphoablated Ser-788-Ala GST-tagged cytoplasmic domain of N-cadherin (P15116, form named): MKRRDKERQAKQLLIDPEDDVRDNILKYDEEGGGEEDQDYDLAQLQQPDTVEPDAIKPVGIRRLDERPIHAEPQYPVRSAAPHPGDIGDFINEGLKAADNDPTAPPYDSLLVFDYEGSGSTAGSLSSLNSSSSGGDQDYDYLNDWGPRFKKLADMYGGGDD
UniProt Q02248: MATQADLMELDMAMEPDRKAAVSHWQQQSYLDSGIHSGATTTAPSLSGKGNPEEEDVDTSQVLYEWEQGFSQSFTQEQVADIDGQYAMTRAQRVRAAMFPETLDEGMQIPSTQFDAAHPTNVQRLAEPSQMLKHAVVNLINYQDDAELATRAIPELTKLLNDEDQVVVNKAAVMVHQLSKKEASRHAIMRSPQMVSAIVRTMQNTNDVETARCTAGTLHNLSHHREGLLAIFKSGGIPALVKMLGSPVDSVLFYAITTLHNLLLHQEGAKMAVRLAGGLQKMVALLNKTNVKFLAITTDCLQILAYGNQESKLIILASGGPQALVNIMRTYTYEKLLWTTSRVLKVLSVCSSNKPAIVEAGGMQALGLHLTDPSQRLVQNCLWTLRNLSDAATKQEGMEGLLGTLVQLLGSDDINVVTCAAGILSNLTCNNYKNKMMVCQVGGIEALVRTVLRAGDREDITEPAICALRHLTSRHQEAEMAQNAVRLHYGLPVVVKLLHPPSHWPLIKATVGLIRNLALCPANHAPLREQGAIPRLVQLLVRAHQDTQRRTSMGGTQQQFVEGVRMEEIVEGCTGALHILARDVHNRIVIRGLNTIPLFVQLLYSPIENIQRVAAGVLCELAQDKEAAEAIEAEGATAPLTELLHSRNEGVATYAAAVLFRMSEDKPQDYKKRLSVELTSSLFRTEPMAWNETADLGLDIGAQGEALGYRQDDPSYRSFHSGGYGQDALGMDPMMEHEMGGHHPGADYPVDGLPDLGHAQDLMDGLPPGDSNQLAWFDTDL

Experiments:
Test in all cases: pull-down; GST fusion proteins immobilised on glutathione sepharose beads via their GST tag, incubated with 1 mg of 3-month-old adult mouse heart lysate at 4°C overnight; lysis buffer 10 mM Na3PO4 pH 7.2, 10 mM NaN3, 120 mM NaCl, 1 mM CaCl2, 1% NP-40; immunoblot of eluates; only the target purified
[1] = molecular target: GST-Ncad(746-906)-SE, phosphomimic Ser-788-Glu GST-tagged cytoplasmic domain of N-cadherin (mouse) (UniProt P15116)
[2] = molecular target: GST-Ncad(746-906)-SA, phosphoablated Ser-788-Ala GST-tagged cytoplasmic domain of N-cadherin (mouse) (UniProt P15116)
[3] = molecular target: GST-Ncad(746-906)-WT, recombinant GST-tagged cytoplasmic domain of N-cadherin (mouse) (UniProt P15116)

Row | binding [1] | binding [2] | binding [3] | Molecule
1 | binds | binds | binds | endogenous β-catenin (from UniProt Q02248 1-781)
2 | binds | binds | binds | endogenous p120-catenin (protein, UniProt P30999 1-938) MDDSEVESTASILASVKEQEAQFEKLTRALEEERRHVSAQLERVRVSPQDANSLMANGTLTRRHQNGRFVGDADLERQKFSDLKLNGPQDHNHLLYSTIPRMQEPGQIVETYTEEDPEGAMSVVSVETTDDGTTRRTETTVKKVVKTMTTRTVQPVPMGPDGLPVDASAVSNNYIQTLGRDFRKNGNGGPGPYVGQAGTATLPRNFHYPPDGYGRHYEDGYPGGSDNYGSLSRVTRIEERYRPSMEGYRAPSRQDVYGPQPQVRVGGSSVDLHRFHPEPYGLEDDQRSMGYDDLDYGMMSDYGTARRTGTPSDPRRRLRSYEDMIGEEVPPDQYYWAPLAQHERGSLASLDSLRKGMPPPSNWRQPELPEVIAMLGFRLDAVKSNAAAYLQHLCYRNDKVKTDVRKLKGIPILVGLLDHPKKEVHLGACGALKNISFGRDQDNKIAIKNCDGVPALVRLLRKARDMDLTEVITGTLWNLSSHDSIKMEIVDHALHALTDEVIIPHSGWEREPNEDCKPRHIEWESVLTNTAGCLRNVSSERSEARRKLRECDGLVDALIFIVQAEIGQKDSDSKLVENCVCLLRNLSYQVHREIPQAERYQEALPTVANSTGPHAASCFGAKKGKDEWFSRGKKPTEDPANDTVDFPKRTSPARGYELLFQPEVVRIYISLLKESKTPAILEASAGAIQNLCAGRWTYGRYIRSALRQEKALSAIAELLTSEHERVVKAASGALRNLAVDARNKELIGKHAIPNLVKNLPGGQQNSSWNFSEDTVVSILNTINEVIAENLEAAKKLRETQGIEKLVLINKSGNRSEKEVRAAALVLQTIWGYKELRKPLEKEGWKKSDFQVNLNNASRSQSSHSYDDSTLPLIDRNQKSDKKPDREEIPMSNMGSNTKSLDNNYSTLNERGDHNRTLDRSGDLGDMEPLKGAPLMQKI
